Laboratory results as given in PubChem BioAssay AID2685 (National Center for Advancing Translational Sciences (NCATS), 2010).
The list shows a part of the results. These are further read-outs of the screen, such as a control signal, another cell line or another target. No call is given for them. Most of these compounds were active or inconclusive in the main read-out, so they are no random draw. Potencies come from curve fits of mixed quality, noted in brackets.

Assay: qHTS Assay for Lipid Storage Modulators in Drosophila S3 Cells;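 for cell number change: cells counted by Cell Tracker Red CMTPX staining in the red channel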
Conditions: BODIPY lipid droplet fluorescence, 18-24 h; for cell number change: measured here: cell count max response, cells fed with added oleic acid
How it was run: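 Drosophila S3 cells loaded with oleic acid (400 uM, as added) and compounds at several concentrations; lipid droplets imaged by 488-nm laser-scanning cytometry, 500–530 nm intensity and object ratio to cell channel. Percent activity normalized to 20 uM Triacsin C.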

[1] = measured here: cell number channel AC50, cells fed with added oleic acid
[2] = measured here: lipid fluorescence (Fed channel) AC50, cells fed with added oleic acid

SMILES	AC50 [1]	AC50 [2]	cell number change
CCCN1C(=O)/C(=c2\sc3nc(=O)c(Cc4ccc(C)cc4)nn3c2=O)c2ccccc21	0.731 µM [falling, single point]	1.03 µM [falling, single point]	
C=CCN1CCN(C(CC(C)C)c2nnnn2CCOC)CC1 (stereo not drawn)		16.4 µM [rising, single point]	-0.641%
COc1ccccc1CNC(=O)COC(=O)CSc1ccc(C)c(C)c1	0.58 µM [rising, full curve]		50%
CC(=O)Nc1ccc(SCc2csc(C)n2)cc1			4.7%
Cc1ccc2c(c1)c1ncnc(N3CCc4ccccc4C3)c1n2C			-15.7%
OCC[C@@H]1C[C@@H](O)[C@H](O)[C@@]2(OCc3ccccc32)O1		29.1 µM [rising, single point]	16.2%
CCCNC(=O)c1ccc(N2CCC3(CC2)CC(c2cccc(Br)c2)=NO3)c([N+](=O)[O-])c1			-11.1%
Cc1cccc(NC(=O)/C(=C\c2ccco2)NC(=O)c2ccccc2)c1		0.731 µM [rising, full curve]	3.87%
COc1ccc(NC(=O)c2cc(Br)ccc2Cl)c([N+](=O)[O-])c1	8.2 µM [rising, partial curve, poor fit]		51.3%
CN1CCN(C(=S)C(=O)Nc2ccccc2)CC1			118%
CC(=O)Nc1cccc(C(=O)OCC(=O)c2ccccc2Cl)c1	8.2 µM [rising, partial curve, poor fit]	29.1 µM [rising, single point]	54.8%
NC(=O)CSc1n[nH]c(-c2ccco2)n1		0.00461 µM [falling, full curve, poor fit]	-17%
COc1ccc2nnc(-c3ccccc3)n2n1			6.11%
CS(=O)(=O)N(CC(=O)N1CCN(c2ccccc2F)CC1)c1ccc2c(c1)OCCO2			-15.9%
CC(=O)Nc1cccc(OCC(=O)NS(=O)(=O)c2ccc(Cl)cc2)c1	36.6 µM [falling, partial curve]	29.1 µM [falling, single point]	-40.3%
O=C1c2cccc3c([N+](=O)[O-])ccc(c23)C(=O)N1c1nccs1			-7.81%
COc1cccc(CC(=O)Nc2ccc3c(c2)OC2(CCCC2)O3)c1	0.82 µM [falling, full curve, poor fit]	0.259 µM [falling, full curve, poor fit]	-19.4%
Cc1cc(NC(=O)CSC2=NS(=O)(=O)c3cc(F)ccc3N2)no1		20.6 µM [falling, partial curve]	-2.09%
COc1ccc(-c2ccc(S(=O)(=O)N3CCOCC3)cc2)cc1		7.31 µM [rising, single point]	

SMILES	AC50 [1]	AC50 [2]	cell number change
CCOC(=O)/C(C#N)=C/Nc1ccccc1OC		1.3 µM [falling, full curve, poor fit]	-12.1%
CCOC(=O)C1=C(C(F)(F)F)Nc2ncnn2C1c1cccc(OC)c1OC (stereo not drawn)	29.1 µM [rising, single point]	7.31 µM [rising, partial curve]	34.6%
CNc1nc(Nc2ccc(C(C)=O)cc2)nc(OC(C(F)(F)F)C(F)(F)F)n1	4.61 µM [falling, full curve, poor fit]	0.00517 µM [falling, full curve, poor fit]	-28.4%
CCN(C1CCS(=O)(=O)C1)S(=O)(=O)c1cc(C)ccc1C (stereo not drawn)			12.5%
O=C(Nc1nc(-c2ccccc2)c(C(=O)c2ccccc2)s1)c1ccc(S(=O)(=O)N2CCCCC2)cc1		29.1 µM [rising, single point]	
Cc1ccc(C2C(C#N)=C(N)Oc3n[nH]c(-c4ccccc4)c32)o1 (stereo not drawn)	2.91 µM [rising, single point]	6.51 µM [rising, single point]	5.6%
O=C(c1ccc(F)c(F)c1)N1CCC2(CC1)NCCc1[nH]cnc12	18.4 µM [rising, single point]	29.1 µM [rising, single point]	35.6%
O=C(NCc1ccccc1)NC1CC2CCC(C1)N2Cc1ccco1 (stereo not drawn)		29.1 µM [rising, single point]	-1.47%
COc1ccc(CCn2c(=N)c(C(=O)NCc3ccco3)cc3c(=O)n4cccc(C)c4nc32)cc1	5.8 µM [rising, partial curve]	2.31 µM [rising, partial curve, poor fit]	34.1%
CCc1nnc(NC(=O)CSc2nnc(-c3ccccc3O)n2-c2ccc(C)cc2)s1			-11.7%
COc1ccc(-c2cc(C(=O)NC3CCCCC3)no2)cc1OC			3.6%
O=C(Oc1c(CN2CCOCC2)cc(Cl)c2cccnc12)c1cccs1	0.58 µM [falling, single point]		
Cn1c2ccccc2c2nnc(SCN3C(=O)c4ccccc4C3=O)nc21			22.4%
C=CCn1cc(C(=O)N2CCN(C)CC2)c(=O)c2cc(S(=O)(=O)N3CCCC3)ccc21		0.00411 µM [rising, full curve, poor fit]	
O=C(O)CSc1nnc(COc2cccc3cccnc23)n1-c1cccc(C(F)(F)F)c1	6.51 µM [falling, single point]	0.116 µM [rising, full curve, poor fit]	3.05%
COc1cc(/C=C/C(=O)NCC(=O)N2CCC(N(C)CCN3CCOCC3)CC2)ccc1OC(C)C	5.8 µM [falling, single point]	6.51 µM [falling, single point]	9.77%
COc1ccc2nc(C)cc(SCC(=O)NNC(=O)COc3cccc4ccccc34)c2c1	25.9 µM [falling, single point]	29.1 µM [falling, single point]	-60%
CN1CCN(S(=O)(=O)c2cccc(C(=O)O)c2)CC1	29.1 µM [falling, single point]	29.1 µM [falling, single point]	-62.4%
CC(C(=O)O)N(c1ccccc1Cl)S(C)(=O)=O (stereo not drawn)		0.0731 µM [falling, full curve, poor fit]	-3.7%

Some of the entries so far, in markdown.

| SMILES | AC50 [1] | AC50 [2] | cell number change |
| --- | --- | --- | --- |
| COc1ccc(-c2ccc(S(=O)(=O)N3CCOCC3)cc2)cc1 |  | 7.31 µM [rising, single point] |  |
| CCOC(=O)/C(C#N)=C/Nc1ccccc1OC |  | 1.3 µM [falling, full curve, poor fit] | -12.1% |
